Reference: ChEMBL document CHEMBL1121639, “Analgesic narcotic antagonists. 5. 7,7-Dimethyldihydrocodeinones and 7,7-dimethyldihydromorphinones” (1981)

Tested on: Mus musculus
Experiment: Analgesic agonist activity in acetic acid induced mouse writhing assay, subcutaneous administration
Type: functional
Details: sc
Outline: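 Test agents given as solutions: salts in distilled water; free bases dissolved by adding 1 N HCl, then further diluted.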

Structure (SMILES): CN1CC[C@]23c4c5ccc(O)c4O[C@H]2[C@@H](O)C=C[C@H]3[C@H]1C5 [MORPHINE]
- ED50: 2.1 µmol/kg
